Test results reported in doi:10.1101/2023.08.08.549832.
Residue numbers refer to the chain shown, from its start. These are yes or no findings as the source states them, for the method shown. In cells and extracts the contact can be indirect. Some results given as binding are weak or reduced against the parent protein; the word gives no strength. Tags and fused reporters may be left off the sequences shown.

Legend:
[1] = biological target: T1, PTCH2-eGFP (not stated (printed entry Q9Y6C5 is human PTCH2)) (UniProt Q9Y6C5); experiment: FRET or BRET
T1 sequence: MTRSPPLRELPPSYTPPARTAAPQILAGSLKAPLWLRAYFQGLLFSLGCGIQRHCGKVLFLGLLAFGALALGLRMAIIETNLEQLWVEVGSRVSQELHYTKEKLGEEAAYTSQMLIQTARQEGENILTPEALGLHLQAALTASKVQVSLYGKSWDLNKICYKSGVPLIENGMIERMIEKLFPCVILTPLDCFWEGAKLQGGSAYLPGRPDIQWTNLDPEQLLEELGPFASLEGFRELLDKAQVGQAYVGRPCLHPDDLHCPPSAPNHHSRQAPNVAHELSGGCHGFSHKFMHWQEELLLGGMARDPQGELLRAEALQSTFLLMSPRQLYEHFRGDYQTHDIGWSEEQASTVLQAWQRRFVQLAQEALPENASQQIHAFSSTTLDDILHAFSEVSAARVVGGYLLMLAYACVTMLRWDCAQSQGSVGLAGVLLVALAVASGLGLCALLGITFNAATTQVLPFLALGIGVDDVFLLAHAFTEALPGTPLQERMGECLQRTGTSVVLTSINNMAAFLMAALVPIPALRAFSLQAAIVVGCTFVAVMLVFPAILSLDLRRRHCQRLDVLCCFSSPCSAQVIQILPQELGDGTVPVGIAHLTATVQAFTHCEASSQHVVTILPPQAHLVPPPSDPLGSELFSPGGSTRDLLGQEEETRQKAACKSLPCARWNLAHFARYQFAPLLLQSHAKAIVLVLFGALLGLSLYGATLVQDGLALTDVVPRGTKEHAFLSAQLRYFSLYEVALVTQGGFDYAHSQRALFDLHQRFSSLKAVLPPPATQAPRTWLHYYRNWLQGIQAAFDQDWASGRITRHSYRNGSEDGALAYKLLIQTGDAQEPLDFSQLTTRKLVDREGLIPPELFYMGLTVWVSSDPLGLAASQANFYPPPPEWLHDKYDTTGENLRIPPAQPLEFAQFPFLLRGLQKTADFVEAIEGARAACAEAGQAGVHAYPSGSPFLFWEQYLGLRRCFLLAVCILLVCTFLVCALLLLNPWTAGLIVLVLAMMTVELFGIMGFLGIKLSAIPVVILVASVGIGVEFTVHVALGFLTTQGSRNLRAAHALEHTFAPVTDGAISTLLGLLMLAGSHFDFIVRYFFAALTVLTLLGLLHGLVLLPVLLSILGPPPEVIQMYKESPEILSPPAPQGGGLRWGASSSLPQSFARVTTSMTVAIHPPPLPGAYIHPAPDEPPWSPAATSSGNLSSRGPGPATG

[2] = biological target: T2, PTCH2-HA (not stated (printed entry Q9Y6C5 is human PTCH2)) (UniProt Q9Y6C5); experiment: co-IP
T2 sequence: T1 sequence

[3] = biological target: T3, GFP-tagged PTCH2 (LLW) (not stated (printed entry Q9Y6C5 is human PTCH2)) (UniProt Q9Y6C5); experiment: FRET or BRET
T3 sequence: T1 sequence with L82F, L85F, W86A

B1: PTCH2-mCherry (receptor, UniProt Q9Y6C5 1-1203)
chain: T1 sequence
binding [1]: binds

B2: PTCH2-FLAG (receptor, UniProt Q9Y6C5 1-1203)
chain: T1 sequence
binding [2]: binds

B3: PTCH2-LLW-mCherry (receptor, UniProt Q9Y6C5 1-1203)
chain: T1 sequence with L82F, L85F, W86A
binding [1]: binds
binding [3]: binds
